Some entries share one result that the patent states for a list of compounds.
Experiment: pH optimum on syringaldazine by candidate laccases
Format: biochemical
Details: room temperature, pH range 4-11, culture supernatant

B1: BD22449: laccase from Cochiobolus heterostrophus, SEQ ID NO: 2, expressed in Aspergillus niger, tested as culture supernatant (protein, listed as Cochliobolus heterostrophus)
chain: MVSSISRVVTALGLLLPTVTSSVVPHKSLAPRTPEVPWKNTGLFSGHSKRQGYETACNHGPESRGCWIDDFNIDTDMDVEWPDTGKTVKYHLTITNTTGAPDGFERPMFLINGQYPGPTITADWGDVLEITVTNGLENNGTGIHWHGLRQLGTNEQDGVNGITECPIAPGDSKLYRFKATQYGTTWYHSHYSVQYGDGIVGPLIIKGPSTANYDIDLGAFPMTDWFHATTFTVNAAAVHANGPPTADNVLVNGSMTSSFGGKYAETILTPGKSHLLRLMNVGINNYLHVGLDGHQFQVISADFTPIEPFYTDSLVLAVGQRYEVIINATEAVGNYWLRVGTGGNCDGPNANAANIRSIFRYAGAPTEDPDTTGSLPSGCYDEDVVPYAKTTVPQEMPEQLSVGFNPNWTSDVTQNQGLVQWLVNGNPMAVDLEVPTLQSVLDGNVTYGNNRHVFAVDEKHQWQYWVIQQNSSNPPLPHPIHLHGHDFYVLAQVENAVWNGDISTLKTDNPIRRDTADLPAGGYLVLAFESDNPGAWLMHCHIPFHVAAGLGVQFLERESEIKAQDGYAEMHRTCANWQSWRYKYHPNGILFPGDSGLRRRN
pHopt on SGZ: > 8

B2: BD22865: laccase from Fusarium verticillioides, SEQ ID NO: 4, expressed in Aspergillus niger, tested as culture supernatant (protein)
chain: MALIERVWHACVSIVAWLTMWPTSPSTSYQHPLRPNHPHTHIEDPSPGFPIFHPPPGDHEFLCEYPEMTGFVQCSIPENRECWLRHPDGREFNIHTNYENFAPKGIMRHYTLNITESWYNADGQNFTEAKLFNGEYPGPWLEACWGDTFNITVINSMKRNGTSIHWHGIRQNQTMDMDGVNGITQCPIAPGDSFSYIFNTTQYGTSWYHSHYSVQYADGLQGPITIHGPQSAPYDATKRPLLMTDWSHESAFRLLFPGSQFSNKTILLNGAGNVSHYGYTPTLPIPDNYELYFNKTPTDKPTRPKRYLLRLINTSFDSTLVFSIDNHWLQIVTSDFVPIEPYFNTSVLIGIGQRYNVIVEANPLGGDVNEIPDDGNFWIRTWVADACGIAPGGEGYEKTGILRYNHSDKALPSSQPWVNISKACSDETYTSLRPKIPWYIGPAANAQNGERFNVTFDPNAKNTPEFQEEYPVATFGLQRPGQNFRPLQINYSDPVMFHLDEPRDTYPPKWVVIPEDYTEKEWVYFVLTIEGISARTGAHPIHLHGHDFALLQQEENQTYDPSRLNLKLDNPPRRDVVLLPRNGFVVIAFKADNPGIWLMHCHIARHASEGLAMQVLERQGDSNKLFPVGSPNMIEAERVCKVWETWMDGEKDFFEGDSGI
modifications: Fusarium verticillioides
pHopt on SGZ: > 8
